From patent US20220281980A1
These are yes or no findings as the source states them, for the method shown. Some binding calls cover weakened binding; strength is not graded here. For some of these results: Sequences can lack the tags named with a protein.

By UniProt entry, the sequences of proteins in these tests, tags left out. Where a name states a change or a piece, a line headed by the entry shows the natural chain unless it says otherwise. Residues count along the entry.
UniProt Q29983, residues 24-383: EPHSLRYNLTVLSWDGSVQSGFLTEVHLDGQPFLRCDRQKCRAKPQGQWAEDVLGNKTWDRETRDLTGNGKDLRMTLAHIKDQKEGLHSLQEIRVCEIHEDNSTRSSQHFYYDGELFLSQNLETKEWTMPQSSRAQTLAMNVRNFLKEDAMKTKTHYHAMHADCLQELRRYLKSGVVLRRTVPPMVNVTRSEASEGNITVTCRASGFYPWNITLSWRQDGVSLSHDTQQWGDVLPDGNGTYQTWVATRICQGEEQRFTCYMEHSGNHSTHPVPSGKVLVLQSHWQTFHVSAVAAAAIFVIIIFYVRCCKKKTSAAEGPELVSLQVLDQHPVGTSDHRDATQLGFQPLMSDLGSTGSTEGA
UniProt Q29980: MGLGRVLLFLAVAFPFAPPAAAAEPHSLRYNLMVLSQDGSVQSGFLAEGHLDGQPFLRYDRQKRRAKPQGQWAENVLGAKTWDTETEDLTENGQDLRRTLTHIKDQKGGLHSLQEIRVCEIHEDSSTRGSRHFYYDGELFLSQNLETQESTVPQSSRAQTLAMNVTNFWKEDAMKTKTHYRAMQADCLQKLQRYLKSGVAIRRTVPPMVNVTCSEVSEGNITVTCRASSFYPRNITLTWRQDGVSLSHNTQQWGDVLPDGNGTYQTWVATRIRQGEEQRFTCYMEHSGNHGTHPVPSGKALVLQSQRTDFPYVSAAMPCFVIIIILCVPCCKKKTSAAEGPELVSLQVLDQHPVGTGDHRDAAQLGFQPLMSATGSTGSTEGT

What was measured:
[1] = molecular target: human MICA/B endogenously expressed on HeLa cells (MICA allele *008) (human) (UniProt Q29983); assay: flow cytometry (GMFI, FACSCalibur), HeLa cells
[2] = molecular target: human MICA/B endogenously expressed on 786-O cells (MICA allele *008) (human) (UniProt Q29983); assay: flow cytometry (GMFI, FACSCalibur), 786-O cells
[3] = molecular target: human MICA/B endogenously expressed on RPMI-8226 cells (human) (UniProt Q29983); assay: flow cytometry (GMFI, FACSCalibur), RPMI-8226 cells
[4] = molecular target: human MICA/B endogenously expressed on 786-O cells (MICA allele *008) (human) (UniProt Q29983); assay: flow cytometry (GMFI, FACSCalibur), 786-O cells (cross markers)
[5] = molecular target: human MICA/B endogenously expressed on HeLa cells (MICA allele *008) (human) (UniProt Q29983); assay: flow cytometry (GMFI, FACSCalibur), HeLa cells (upright triangles)
[6] = molecular target: recombinant soluble human MICA*002 antigen (human) (UniProt Q29983); assay: SPR (Biacore 3000), antibody captured on Protein G chip, MICA-002 antigen injected
[7] = molecular target: recombinant soluble human MICA*004 antigen (human) (UniProt Q29983); assay: SPR (Biacore 3000), antibody captured on Protein G chip, MICA-004 antigen injected
[8] = molecular target: recombinant soluble human MICA*008 antigen (human) (UniProt Q29983); assay: SPR (Biacore 3000), antibody captured on Protein G chip, MICA-008 antigen injected
[9] = molecular target: recombinant soluble human MICA*009 antigen (human) (UniProt Q29983); assay: SPR (Biacore 3000), antibody captured on Protein G chip, MICA-009 antigen injected
[10] = molecular target: human MICB expressed on transduced cells (human) (UniProt Q29980); assay: flow cytometry (GMFI, FACSCalibur), CHO cells with MICB; untransfected CHOs at 0 at 670 nM
[11] = molecular target: human MICA*002 expressed on CHO cells (human) (UniProt Q29983); assay: flow cytometry (GMFI, FACSCalibur), CHO cells with MICA*002; untransfected CHOs at 0 at 670 nM
[12] = molecular target: human MICA*004 expressed on CHO cells (human) (UniProt Q29983); assay: flow cytometry (GMFI, FACSCalibur), CHO cells with MICA*004; untransfected CHOs at 0 at 670 nM
[13] = molecular target: human MICA*008 expressed on CHO cells (human) (UniProt Q29983); assay: flow cytometry (GMFI, FACSCalibur), CHO cells with MICA*008; untransfected CHOs at 0 at 670 nM
[14] = molecular target: human MICA*009 expressed on CHO cells (human) (UniProt Q29983); assay: flow cytometry (GMFI, FACSCalibur), CHO cells with MICA*009; untransfected CHOs at 0 at 670 nM
[15] = molecular target: human MICA*010 expressed on CHO cells (human) (UniProt Q29983); assay: flow cytometry (GMFI, FACSCalibur), CHO cells with MICA*010; untransfected CHOs at 0 at 670 nM
[16] = molecular target: human MICB expressed on transduced cells (human) (UniProt Q29980); assay: flow cytometry, transfected CHO cells
[17] = molecular target: human MICB expressed on transduced cells (human) (UniProt Q29980); assay: flow cytometry (GMFI, FACSCalibur), CHO cells with MICB
[18] = molecular target: T1, MICA-ECD displayed on yeast (C-terminal myc-Aga1 fusion) (human) (UniProt Q29983); assay: yeast surface display of MICA-ECD, flow cytometry
T1 sequence: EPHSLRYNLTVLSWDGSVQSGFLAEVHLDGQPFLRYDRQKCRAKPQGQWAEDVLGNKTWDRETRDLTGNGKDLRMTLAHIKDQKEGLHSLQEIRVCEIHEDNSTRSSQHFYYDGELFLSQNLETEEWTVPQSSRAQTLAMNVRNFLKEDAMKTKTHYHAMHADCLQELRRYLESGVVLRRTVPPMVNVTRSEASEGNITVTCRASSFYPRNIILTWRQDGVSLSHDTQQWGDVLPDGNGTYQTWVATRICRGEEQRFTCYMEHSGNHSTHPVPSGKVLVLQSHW

[19] = molecular target: human MICB expressed on transduced cells (human) (UniProt Q29980); assay: Scatchard analysis, 125I-MICA.36 on transduced CHO cells

Measured: binding

B1: 16A5 (antibody, V domains shown)
VH: QVQLVESGGDVVQPGRSLRLSCAASGFTFSNYNIHWVRQAPGKGLEWVAVIRYDGINKYYADSVKGRFIISRDNSKNTLYLQMNSLRAEDTAVYYCASGPPDAFNIWGQGTMVTVSS
VL: AIQLTQSPSSLSASVGDRVTITCRASQGISSALAWYQQKPGKVPKSLIYDASSLESGVPSRFSGSGSGTDFTLTISSLQPEDFATYYCQQFNSYPITFGQGTRLEIK
not listed: [16] | [17] | [18] | [19]
binds: all other assays above

B2: 19G6 (antibody, V domains shown)
VH: QVQLVESGGGVVQPGRSLRLSCAASGFTFSNYAMHWVRQAPGEGLEWVALIWYDGSNKFYGDSVKGRFTISRDNSKNTLYLQMNSLSAEDTAVYYCAREGSGHYWGQGTLVTVSS
VL: AIQLTQSPSSLSASVGDRVTITCRASQGISSALAWYQQKPGKVPKSLIYDASSLESGVPSRFSGSGSGTDFTLTISSLQPEDFATYYCQQFNSYPITFGQGTRLEIK
binds: [16] | [1] | [2] | [3] | [17]

B3: MICA.36 (antibody, V domains shown)
VH: QVQLVESGGGVVQPGRSLRLSCAASGFTFSNYAMHWVRQAPGEGLEWVALIWYDGSNKFYGDSVKGRFTISRDNSKNTLYLQMNSLSAEDTAVYYCAREGSGHYWGQGTLVTVSS
VL: AIQLTQSPSSLSASVGDRVTITCRASQGISSALAWYQQKPGKVPKSLIYDASSLESGVPSRFSGSGSGTDFTLTISSLQPEDFATYYCQQFNSYPITFGQGTRLEIK
binds: [18] | [19]
